Data reported in PubChem BioAssay (NCATS).
This list was built around the results that the source calls inconclusive (neither active nor inactive); the mix of calls is not that of the screen. Potencies beside an inconclusive call are fits to weak or partial responses and may not hold up. Activity calls are given as the source filed them. Calls follow the shape of the dose curve; as a rule, active = well fitted cell-killing curve with a large enough effect; inconclusive = small, poorly fitted or top-dose-only effect, or effect the other way; inactive = no such curve, though single readings can be large or run the other way.

Legend:
[1] = Quantitative High-Throughput drug screen in 47 multiple myeloma cell lines against the NCATS MIPE library collection: LP1_DSMZ cell viability assay (AID 1918982); also: nearly all actives have a fitted effect of over 35% in size
How it was run: (§1)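 Inhibition of viability over 48 h was scored by ATP content (CellTiter-Glo) in 500-cell wells. Zero and full viability were defined by media-only and DMSO-only wells.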

[2] = Quantitative High-Throughput drug screen in 47 multiple myeloma cell lines against the NCATS MIPE library collection: OCIMY5_PLB cell viability assay (AID 1918988); also: nearly all actives have a fitted effect of over 65% in size
How it was run: as §1

[3] = Quantitative High-Throughput drug screen in 47 multiple myeloma cell lines against the NCATS MIPE library collection: XG6_PLB cell viability assay (AID 1919865); settings: XG6 myeloma viability, CellTiter-Glo ATP luminescence, 48 h; viability (% of control): at 45.8 µM (top of the series); also: nearly all actives have a fitted effect of over 40% in size;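 as to viability (% of control): 100% = DMSO-only wells and 0% = media-only wells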
How it was run: as §1

[4] = Quantitative High-Throughput drug screen in 47 multiple myeloma cell lines against the NCATS MIPE library collection: XG1_PLB cell viability assay (AID 1919866); settings: CellTiter-Glo ATP, 48 h; viability: at 45.8 µM (top of the series); also: nearly all actives have a fitted effect of over 35% in size
How it was run: as §1

[5] = Quantitative High-Throughput drug screen in 47 multiple myeloma cell lines against the NCATS MIPE library collection: VP6_DJ cell viability assay (AID 1919867); settings: ATP luminescence, 48 h; viability (% of DMSO): at 45.8 µM (top of the series); also: nearly all actives have a fitted effect of over 40% in size;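 as to viability (% of DMSO): 100% = DMSO-only wells and 0% = wells with media alone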
How it was run: as §1

[6] = Quantitative High-Throughput drug screen in 47 multiple myeloma cell lines against the NCATS MIPE library collection: UTMC2_PLB cell viability assay (AID 1919868); settings: CellTiter-Glo ATP luminescence, 48 h; viability (% of DMSO control): at 45.8 µM (top of the series); also: nearly all actives have a fitted effect of over 55% in size;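 as to viability (% of DMSO control): 100% = DMSO-only wells and 0% = media-only wells without cells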
How it was run: as §1

[7] = Quantitative High-Throughput drug screen in 47 multiple myeloma cell lines against the NCATS MIPE library collection: PE2_PLB cell viability assay (AID 1919869); settings: PE2_PLB myeloma cells viability, ATP luminescence, 48 h; viability (% of control): at 45.8 µM (top of the series); also: nearly all actives have a fitted effect of over 35% in size;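 as to viability (% of control): 100% = DMSO-only wells and 0% = cell-free media-only wells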
How it was run: as §1

[8] = Quantitative High-Throughput drug screen in 47 multiple myeloma cell lines against the NCATS MIPE library collection: KMS28PE_JCRB cell viability assay (AID 1918983); also: nearly all actives have a fitted effect of over 35% in size
How it was run: as §1

[9] = Quantitative High-Throughput drug screen in 47 multiple myeloma cell lines against the NCATS MIPE library collection: L363_DSMZ cell viability assay (AID 1918984); settings: L363 myeloma viability, CellTiter-Glo ATP luminescence, 48 h; viability (% of control): at 45.8 µM (top of the series); also: nearly all actives have a fitted effect of over 40% in size
How it was run: as §1

[10] = Quantitative High-Throughput drug screen in 47 multiple myeloma cell lines against the NCATS MIPE library collection: KMS34_JCRB cell viability assay (AID 1918985); also: nearly all actives have a fitted effect of over 40% in size
How it was run: as §1

[11] = Quantitative High-Throughput drug screen in 47 multiple myeloma cell lines against the NCATS MIPE library collection: OCIMY7_PLB cell viability assay (AID 1918987); settings: OCI-MY7 myeloma viability, CellTiter-Glo ATP, 48 h; viability (% of DMSO): at 45.8 µM (top of the series); also: nearly all actives have a fitted effect of over 65% in size
How it was run: as §1

[12] = Quantitative High-Throughput drug screen in 47 multiple myeloma cell lines against the NCATS MIPE library collection: OPM1_PLB cell viability assay (AID 1918989); also: nearly all actives have a fitted effect of over 40% in size;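 as to viability (% of control): 100% = DMSO-only wells and 0% = media-only wells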
How it was run: as §1

[13] = Quantitative High-Throughput drug screen in 47 multiple myeloma cell lines against the NCATS MIPE library collection: U266_ATCC cell viability assay (AID 1919864); settings: U266 myeloma viability, CellTiter-Glo ATP luminescence, 48 h; viability (% of DMSO control): at 45.8 µM (top of the series); also: nearly all actives have a fitted effect of over 35% in size;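 as to viability (% of DMSO control): 0% = media-only wells without cells and 100% = DMSO-only wells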
How it was run: as §1

[14] = Quantitative High-Throughput drug screen in 47 multiple myeloma cell lines against the NCATS MIPE library collection: PCM6_Riken cell viability assay (AID 1919870); also: nearly all actives have a fitted effect of over 30% in size;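 as to viability (% of control): 100% = DMSO-only wells and 0% = media-only wells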
How it was run: as §1

[15] = Quantitative High-Throughput drug screen in 47 multiple myeloma cell lines against the NCATS MIPE library collection: KMS28BM_JCRB cell viability assay (AID 1919874); also: nearly all actives have a fitted effect of over 35% in size
How it was run: as §1

[16] = Quantitative High-Throughput drug screen in 47 multiple myeloma cell lines against the NCATS MIPE library collection: RPMI8226_ATCC cell viability assay (AID 1919871); settings: RPMI8226 myeloma viability, CellTiter-Glo ATP luminescence, 48 h; viability (% of control): at 45.8 µM (top of the series); also: nearly all actives have a fitted effect of over 30% in size
How it was run: as §1

[17] = Quantitative High-Throughput drug screen in 47 multiple myeloma cell lines against the NCATS MIPE library collection: KMS11_JCRBsus cell viability assay (AID 1919873); also: nearly all actives have a fitted effect of over 50% in size;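 as to viability (% of control): 100% = DMSO-only wells and 0% = media-only wells without cells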
How it was run: as §1

[18] = Quantitative High-Throughput drug screen in 47 multiple myeloma cell lines against the NCATS MIPE library collection: SKMM1_PLB cell viability assay (AID 1919863); settings: SKMM1 myeloma viability, CellTiter-Glo ATP, 48 h; viability: stronger effect = lower value; also: nearly all actives have a fitted effect of over 35% in size
How it was run: as §1

[19] = Quantitative High-Throughput drug screen in 47 multiple myeloma cell lines against the NCATS MIPE library collection: OPM2_DSMZ cell viability assay (AID 1919872); also: nearly all actives have a fitted effect of over 30% in size
How it was run: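 Approved and investigational drugs from MIPE 4.0 were added by pin tool to 500 cells per well. After 48 hours at 37C, ATP-based CellTiter-Glo luminescence indicated remaining viability.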
Potency is read from the fitted curve at half-maximal effect.

Cc1c(C(=O)c2cccc3ccccc23)c2cccc3c2n1[C@H](CN1CCOCC1)CO3
inactive: Potency [4] | Potency [5]
active: Potency [2] 23500 nM | Potency [7] 23500 nM
inconclusive: Potency [1] 29600 nM [cytotoxic, single point] | Potency [3] 11.8 nM [rising, full curve, poor fit] | Potency [6] 37200 nM [cytotoxic, single point]

COc1ccc2c(c1)[C@]13CCCCC1C(C2)N(C)CC3 (some centres undefined)
inconclusive: Potency [11] 7430 nM [rising, partial curve, poor fit] | Potency [5] 2090 nM [cytotoxic, full curve, poor fit] | Potency [15] 23500 nM [cytotoxic, single point]
inactive: Potency [8] | Potency [9] | Potency [10] | Potency [2] | Potency [12] | Potency [13] | Potency [6] | Potency [14]

COCC1(CO)C(=O)C2CCN1CC2 (centres undefined)
active: Potency [1] 2640 nM | Potency [13] 2960 nM | Potency [6] 11800 nM | Potency [14] 20900 nM | Potency [16] 20900 nM

CN(C)CCc1ccc(O)cc1
inactive: Potency [8] | Potency [10] | Potency [11] | Potency [2] | Potency [17]
active: Potency [5] 6620 nM
inconclusive: Potency [9] 3.7 nM [cytotoxic, full curve, poor fit] | Potency [3] 2350 nM [cytotoxic, partial curve, poor fit] | Potency [6] 2.3 nM [rising, full curve, poor fit] | Potency [15] 23500 nM [cytotoxic, single point]

CC(C)(O)C=CC(=O)[C@](C)(O)[C@H]1[C@H](O)C[C@]2(C)[C@@H]3CC=C4[C@@H](C=C(O)C(=O)C4(C)C)[C@]3(C)C(=O)C[C@@]12C
active: Potency [8] 1660 nM | Potency [11] 23.5 nM | Potency [18] 2640 nM | Potency [13] 526 nM | Potency [5] 105 nM | Potency [6] 41.8 nM | Potency [14] 29.6 nM | Potency [16] 52.6 nM

CCCC(C)(COC(N)=O)COC(=O)NC(C)C (centres undefined)
inconclusive: Potency [10] 26.4 nM [rising, full curve, poor fit] | Potency [12] 5.9 nM [rising, full curve, poor fit] | Potency [18] 1 nM | Potency [3] 18.7 nM [rising, full curve, poor fit] | Potency [6] 1.9 nM [rising, full curve, poor fit] | Potency [17] 8330 nM [cytotoxic, single point] | Potency [15] 11800 nM [cytotoxic, single point]
inactive: Potency [8] | Potency [11] | Potency [2] | Potency [13] | Potency [4] | Potency [5] | Potency [7] | Potency [19]

CCN(CC)C(=O)c1ccc(C2=CC3(CCNCC3)Oc3cccc(O)c32)cc1
inconclusive: Potency [9] 37200 nM [cytotoxic, single point] | Potency [10] 1.2 nM [cytotoxic, full curve, poor fit] | Potency [2] 37200 nM [cytotoxic, single point] | Potency [13] 16600 nM [cytotoxic, partial curve, poor fit] | Potency [4] 33200 nM [cytotoxic, single point] | Potency [6] 118 nM [rising, full curve, poor fit]
inactive: Potency [8] | Potency [11] | Potency [12] | Potency [5] | Potency [15]

Already shown: two of the compounds above.
CN(C)CCc1ccc(O)cc1
inactive: Potency [8] | Potency [10] | Potency [11] | Potency [2] | Potency [17]
active: Potency [5] 6620 nM
inconclusive: Potency [9] 3.7 nM [cytotoxic, full curve, poor fit] | Potency [3] 2350 nM [cytotoxic, partial curve, poor fit] | Potency [6] 2.3 nM [rising, full curve, poor fit] | Potency [15] 23500 nM [cytotoxic, single point]

CC(C)(O)C=CC(=O)[C@](C)(O)[C@H]1[C@H](O)C[C@]2(C)[C@@H]3CC=C4[C@@H](C=C(O)C(=O)C4(C)C)[C@]3(C)C(=O)C[C@@]12C
active: Potency [8] 1660 nM | Potency [11] 23.5 nM | Potency [18] 2640 nM | Potency [13] 526 nM | Potency [5] 105 nM | Potency [6] 41.8 nM | Potency [14] 29.6 nM | Potency [16] 52.6 nM

More results follow:

NC1CC1c1ccccc1 (centres undefined)
inconclusive: Potency [8] 1 nM [cytotoxic] | Potency [9] 2090 nM [cytotoxic, partial curve, poor fit] | Potency [10] 4.2 nM [rising, full curve, poor fit] | Potency [2] 5.3 nM [rising, full curve, poor fit] | Potency [5] 11800 nM [cytotoxic, full curve, poor fit]
inactive: Potency [11] | Potency [13] | Potency [3] | Potency [4] | Potency [6] | Potency [14] | Potency [17] | Potency [15]

CC(=CCCC1=CCC(C2=CC(=O)OC2O)OC1O)CCC1=C(C)CCCC1(C)C (centres undefined)
inconclusive: Potency [8] 26.4 nM [cytotoxic, full curve, poor fit] | Potency [10] 3720 nM [cytotoxic, full curve, poor fit] | Potency [11] 9350 nM [cytotoxic, full curve, poor fit] | Potency [2] 7.4 nM [cytotoxic, full curve, poor fit] | Potency [4] 11800 nM [cytotoxic, partial curve, poor fit] | Potency [6] 6620 nM [rising, partial curve, poor fit] | Potency [14] 105000 nM [cytotoxic, single point] | Potency [17] 4690 nM [cytotoxic, full curve, poor fit]
active: Potency [9] 2350 nM | Potency [13] 18700 nM | Potency [5] 4180 nM
inactive: Potency [19]

C[C@@H]1C[C@@H]([C@H](O)CC2CC(=O)NC(=O)C2)C(=O)[C@@H](C)C1
inconclusive: Potency [19] 1320 nM [cytotoxic, full curve]
active: Potency [1] 118 nM | Potency [10] 118 nM

CC1=C2C[C@@H]3[C@@H](CC=C4C[C@@H](O)CC[C@@]43C)[C@@H]2CC[C@]12O[C@H]1C[C@H](C)CN[C@H]1[C@H]2C
active: Potency [2] 11800 nM | Potency [12] 46.9 nM
inconclusive: Potency [8] 3720 nM [cytotoxic, partial curve, poor fit] | Potency [9] 8.3 nM [rising, full curve, poor fit] | Potency [11] 118 nM [rising, full curve, poor fit] | Potency [6] 93.5 nM [cytotoxic, full curve, poor fit] | Potency [17] 11800 nM [cytotoxic, single point]
inactive: Potency [10] | Potency [3] | Potency [4] | Potency [7] | Potency [14]

Cc1c(N)nc([C@H](CC(N)=O)NC[C@@H](N)C(N)=O)nc1C(=O)N[C@H](C(=O)N[C@@H](C)[C@H](O)[C@@H](C)C(=O)N[C@@H](C(=O)NCCc1nc(-c2nc(C(=O)NCCC[S+](C)C)cs2)cs1)[C@@H](C)O)C(O[C@H]1O[C@H](CO)[C@H](O)[C@@H](O)[C@@H]1O[C@H]1O[C@H](CO)[C@@H](O)[C@H](OC(N)=O)[C@H]1O)c1cnc[nH]1 (some centres undefined)
inconclusive: Potency [9] 33200 nM [cytotoxic, single point] | Potency [11] 296 nM [cytotoxic, full curve, poor fit] | Potency [2] 10.5 nM [cytotoxic, full curve, poor fit] | Potency [12] 418 nM [cytotoxic, full curve, poor fit] | Potency [13] 37200 nM [cytotoxic, single point] | Potency [7] 20900 nM [cytotoxic, partial curve]
active: Potency [10] 264 nM | Potency [3] 590 nM | Potency [19] 2350 nM
inactive: Potency [8] | viability [18] 89.3% | Potency [14] | Potency [16] | Potency [17]

CC(=Cc1csc(C)n1)[C@@H]1C[C@H]2O[C@@H]2CCC[C@H](C)[C@@H](O)[C@@H](C)C(=O)C(C)(C)[C@@H](O)CC(=O)O1
inactive: Potency [8] | Potency [11] | Potency [2] | Potency [3] | Potency [5] | Potency [16] | Potency [15]
inconclusive: Potency [12] 14800 nM [rising, partial curve, poor fit] | Potency [13] 6.6 nM [rising, full curve, poor fit] | Potency [4] 3320 nM [rising, full curve, poor fit] | Potency [6] 332 nM [rising, full curve, poor fit]

O=C(Oc1ccc([N+](=O)[O-])cc1)N1CCN(Cc2cccc(Oc3ccccc3)c2)CC1
active: Potency [4] 20900 nM
inactive: Potency [8] | Potency [2] | viability [18] 117% | Potency [19]
inconclusive: Potency [11] 37200 nM [cytotoxic, single point] | Potency [6] 29600 nM [cytotoxic, single point] | Potency [14] 4690 nM [cytotoxic, partial curve, poor fit] | Potency [17] 37200 nM [cytotoxic, single point] | Potency [15] 37200 nM [cytotoxic, single point]

CCCC[N+]1(C)[C@H]2CC(OC(=O)[C@H](CO)c3ccccc3)C[C@H]1[C@H]1O[C@H]12 (some centres undefined)
inconclusive: Potency [11] 10500 nM [cytotoxic, partial curve, poor fit] | Potency [18] 8330 nM [cytotoxic, single point] | Potency [4] 1480 nM [cytotoxic, full curve, poor fit] | Potency [5] 26400 nM [cytotoxic, single point] | Potency [17] 66.2 nM [cytotoxic, full curve, poor fit]
inactive: Potency [8] | Potency [9] | Potency [10] | Potency [2] | Potency [13] | Potency [6] | Potency [14] | Potency [16] | Potency [19] | Potency [15]

COC(=O)C1=CCCN(C)C1
inconclusive: Potency [8] 2640 nM [cytotoxic, partial curve, poor fit] | Potency [11] 16600 nM [cytotoxic, partial curve, poor fit] | Potency [2] 66.2 nM [rising, full curve, poor fit] | Potency [18] 7430 nM [cytotoxic, partial curve, poor fit] | Potency [13] 29600 nM [cytotoxic, single point] | Potency [4] 1.2 nM [rising, full curve, poor fit] | Potency [6] 1.2 nM [cytotoxic, full curve, poor fit] | Potency [16] 7430 nM [cytotoxic, single point]
inactive: Potency [9] | Potency [10] | Potency [3] | Potency [17]
